# Measured values reported in the supplement of paper PMC10331698.
# ± gives the standard deviation of the averaged measurements. Most values lie at the level of the controls, where differences are scatter.
# What was measured:
# Test in all cases: level (log10 ratio to DMSO vehicle control); higher = higher biomarker level / cell amount than vehicle control
# [1] = compound: O=C(O)C(F)(F)OC(F)(F)C(F)(F)OC(F)(F)C(F)(F)C(F)(F)C(F)(F)F [Perfluoro-3,6-dioxadecanoic acid]; details: 2200 nM; in DMSO
# Method: (§1)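 BioMAP Diversity Plus panel of 12 human primary cell co-culture systems (3C, 4H, LPS, SAg, BT, BF4T, BE3C, CASM3C, HDF3CGF, KF3CT, MyoF, Mphg). Compounds were added 1 h before stimulation and left for 24 h (MyoF 48 h; BT 72 h for soluble read-outs or 6 d for IgG). Biomarkers were read by ELISA, cytotoxicity by SRB, PBMC viability and proliferation by Alamar Blue. Each well value was divided by the mean of 8 DMSO control wells on the same plate and log10 transformed; duplicate blinded samples were tested at 4 concentrations.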
# [2] = compound: FC(F)C(F)(F)COCC1CO1 [((2,2,3,3-Tetrafluoropropoxy)methyl)oxirane]; details: 2200 nM; in DMSO
# Method: as §1
# [3] = compound: C=CC(=O)OCC(F)(F)C(F)(F)C(F)(F)C(F)(F)COC(=O)C=C [1H,1H,6H,6H-Perfluorohexane-1,6-diol diacrylate]; details: 2200 nM; in DMSO
# Method: as §1
# [4] = compound: O=C(O)C(F)(F)C(F)(F)C(F)(F)F [Perfluorobutanoic acid]; details: 2200 nM; in DMSO
# Method: as §1
# [5] = compound: O=C(O)C(F)(F)C(F)(F)F [Perfluoropropanoic acid]; details: 2200 nM; in DMSO
# Method: as §1
# [6] = compound: O=C(O)C(F)(F)OC(F)(F)C(F)(F)OC(F)(F)C(=O)O [Perfluoro-3,6-dioxaoctane-1,8-dioic acid]; details: 2200 nM; in DMSO
# Method: as §1
# [7] = compound: OCC(F)(F)C(F)(F)C(F)(F)C(F)(F)C(F)(F)C(F)(F)C(F)(F)C(F)(F)C(F)(F)C(F)(F)C(F)(F)F [11:1 Fluorotelomer alcohol]; details: in DMSO
# Method: as §1
# [8] = compound: O=C(O)C(F)(F)C(F)(F)OC(F)(F)F [Perfluoro-3-methoxypropanoic acid]; details: 2200 nM; in DMSO
# Method: as §1
# [9] = compound: FC(F)(F)C(F)(F)C(F)(F)C(F)(F)C(F)(F)C(F)(F)C(F)(F)CCI [1-Iodo-1H,1H,2H,2H-perfluorononane]; details: in DMSO
# Method: as §1
# [10] = compound: NC(=O)C(F)(F)C(F)(F)C(F)(F)C(F)(F)C(F)(F)C(F)(F)C(F)(F)F [Perfluorooctanamide]; details: 2200 nM; in DMSO
# Method: as §1
# [11] = compound: O=C(O)C=CC(F)(C(F)(F)F)C(F)(F)F [3-(Perfluoroisopropyl)-2-propenoic acid]; details: in DMSO
# Method: as §1
# [12] = compound: O=S(=O)(Cl)C(F)(F)C(F)(F)C(F)(F)C(F)(F)C(F)(F)C(F)(F)C(F)(F)C(F)(F)F [Perfluoro-1-octanesulfonyl chloride]; details: 2200 nM; in DMSO
# Method: as §1
# [13] = compound: OCCC(F)(F)C(F)(F)C(F)(F)C(F)(F)C(F)(F)C(F)(F)C(F)(F)C(F)(F)F [8:2 Fluorotelomer alcohol]; details: 2200 nM; in DMSO
# Method: as §1
# [14] = compound: C=C(C)C(=O)OCC(F)(F)C(F)(F)C(F)(F)F [2,2,3,3,4,4,4-Heptafluorobutyl methacrylate]; details: 2200 nM; in DMSO
# Method: as §1
# [15] = compound: O=C(O)C(F)(F)C(F)(F)C(F)(F)C(F)(F)C(F)(F)C(F)(F)C(F)(F)C(F)(F)C(F)(F)C(F)(F)F [Perfluoroundecanoic acid]; details: in DMSO
# Method: as §1
# [16] = compound: O=P(O)(O)CCC(F)(F)C(F)(F)C(F)(F)C(F)(F)C(F)(F)C(F)(F)C(F)(F)C(F)(F)F [((Perfluorooctyl)ethyl)phosphonic acid]; details: 2200 nM; in DMSO
# Method: as §1
# [17] = compound: O=C(O)C(F)(F)C(F)(F)C(F)(F)C(F)(F)C(F)(F)C(F)(F)C(F)(F)C(F)F [9-H-Perfluorononanoic acid]; details: 2200 nM; in DMSO
# Method: as §1
# [18] = compound: FC(F)(F)C(F)(F)C(F)(F)C(F)(F)C(F)(F)C(F)(F)C(F)(F)I [1-Iodopentadecafluoroheptane]; details: in DMSO
# Method: as §1
Test System,level (log10) [1],level (log10) [2],level (log10) [3],level (log10) [4],level (log10) [5],level (log10) [6],level (log10) ([7]; 370 nM),level (log10) ([7]; 1100 nM),level (log10) ([7]; 3300 nM),level (log10) ([7]; 10000 nM),level (log10) [8],level (log10) ([9]; 740 nM),level (log10) ([9]; 2200 nM),level (log10) ([9]; 6700 nM),level (log10) ([9]; 20000 nM),level (log10) [10],level (log10) ([11]; 2200 nM),level (log10) ([11]; 6700 nM),level (log10) ([11]; 20000 nM),level (log10) ([11]; 60000 nM),level (log10) [12],level (log10) [13],level (log10) [14],level (log10) ([15]; 740 nM),level (log10) ([15]; 2200 nM),level (log10) [16],level (log10) [17],level (log10) ([18]; 740 nM),level (log10) ([18]; 2200 nM),level (log10) ([18]; 6700 nM),level (log10) ([18]; 20000 nM)
CASM3C:Proliferation,0.0015 ± 0.0064,-0.0055 ± 0.053,0.0385 ± 0.018,-0.0115 ± 0.00071,0.0295 ± 0.043,-0.0025 ± 0.0021,0.0025 ± 0.022,0.0145 ± 0.0078,-0.0185 ± 0.005,0.0565 ± 0.0092,-0.014 ± 0.018,0.006 ± 0.0071,-0.0045 ± 0.012,-0.001,0.0105 ± 0.04,-0.0245 ± 0.012,0.0235 ± 0.022,0.0035 ± 0.019,-0.009 ± 0.0085,0.009 ± 0.059,-0.03 ± 0.041,-0.0275 ± 0.032,-0.003 ± 0.017,0.006 ± 0.034,0.032 ± 0.025,-0.001 ± 0.0085,-0.012 ± 0.016,-0.112 ± 0.13,-0.0155 ± 0.032,-0.003 ± 0.027,-0.045 ± 0.0042
SAg:CD40,0.011 ± 0.0014,-0.0055 ± 0.0092,-0.04 ± 0.024,-0.001 ± 0.027,-0.017 ± 0.018,0.024 ± 0.025,-0.012 ± 0.067,-0.038 ± 0.024,-0.068,-0.0685 ± 0.042,0.016 ± 0.025,-0.0365 ± 0.066,-0.024 ± 0.011,-0.006 ± 0.021,-0.0065 ± 0.0092,-0.009,-0.004 ± 0.013,-0.006 ± 0.058,-0.005 ± 0.04,-0.038 ± 0.014,-0.0215 ± 0.011,0 ± 0.0042,0.0135 ± 0.036,0.009 ± 0.0028,-0.0075 ± 0.005,-0.0415 ± 0.036,-0.0425 ± 0.015,-0.028 ± 0.045,-0.009 ± 0.0028,-0.0065 ± 0.013,-0.007 ± 0.0085
lMphg:CD40,-0.0295 ± 0.016,0.009 ± 0.011,-0.0045 ± 0.012,-0.046 ± 0.083,0.0055 ± 0.026,-0.0065 ± 0.0092,0.015 ± 0.023,0.0005 ± 0.036,0.005 ± 0.042,-0.357 ± 0.028,-0.01 ± 0.034,-0.01 ± 0.038,-0.0015 ± 0.028,-0.0065 ± 0.00071,-0.0225 ± 0.028,-0.0015 ± 0.00071,-0.0035 ± 0.012,-0.0395 ± 0.053,-0.01 ± 0.025,-0.0045 ± 0.019,-0.0065 ± 0.012,-0.004 ± 0.0085,0.0105 ± 0.0064,0.0175 ± 0.026,0.0005 ± 0.0064,-0.034 ± 0.0042,-0.0185 ± 0.005,0.0205 ± 0.005,0.0175 ± 0.042,-0.0175 ± 0.052,-0.0365 ± 0.046
